Experimental data taken from paper PMC10140301.
The exact form of at least one protein or probe is not confirmed. At least one verdict rests on a figure or table, not on a statement of the authors.

System: DV-Hjc (Hjc/UPF0102 homolog)
Test: EMSA
Settings: 5 mM EDTA, no divalent metal, 50 mM Tris pH 8.0, 50 mM NaCl, 10 mM DTT, 15 C, 30 min, 80 nM FAM probe, DV-Hjc 329 nM, 10% native TBE PAGE, recombinant protein, protein details: His-MBP fusion, tag removed with TEV protease
[1] = label: 5' FAM, single-stranded DNA

| Sequence | binding result [1] | other results |
| --- | --- | --- |
| AGGCCATGGCTGATATCGCATAGGCATTCGAGCTCCGTCG (double strand) [DS 40 nt] |  | binding result (label: 5' FAM on strand 1): binds |
| AGGCCATGGCTGATATCGCATAGGCATTCGAGCTCCGTCG [SS 40 nt] | binds |  |
| AGGCCATGGCTGATATCGCA [SS 20 nt] | binds |  |
| AGGCCATGGCTGATATCGCA (double strand) [DS 20 nt] |  | binding result (label: 5' FAM on strand 1, letters put together from the description): binds |
